From paper PMC6138936
Results are given in words; binding and its absence hold for the method and conditions named. In cells and extracts the contact can be indirect. Some binding calls cover weakened binding; strength is not graded here.

Amino acid sequences for entries named in this document (tags omitted).
UniProt Q07955: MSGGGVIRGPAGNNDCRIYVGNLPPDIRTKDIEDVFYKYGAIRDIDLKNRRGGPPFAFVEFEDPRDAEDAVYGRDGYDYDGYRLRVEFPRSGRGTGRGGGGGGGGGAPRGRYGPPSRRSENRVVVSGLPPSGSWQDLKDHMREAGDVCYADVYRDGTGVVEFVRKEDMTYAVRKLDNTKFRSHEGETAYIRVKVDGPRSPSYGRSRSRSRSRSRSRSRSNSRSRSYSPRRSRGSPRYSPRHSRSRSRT
UniProt O75475: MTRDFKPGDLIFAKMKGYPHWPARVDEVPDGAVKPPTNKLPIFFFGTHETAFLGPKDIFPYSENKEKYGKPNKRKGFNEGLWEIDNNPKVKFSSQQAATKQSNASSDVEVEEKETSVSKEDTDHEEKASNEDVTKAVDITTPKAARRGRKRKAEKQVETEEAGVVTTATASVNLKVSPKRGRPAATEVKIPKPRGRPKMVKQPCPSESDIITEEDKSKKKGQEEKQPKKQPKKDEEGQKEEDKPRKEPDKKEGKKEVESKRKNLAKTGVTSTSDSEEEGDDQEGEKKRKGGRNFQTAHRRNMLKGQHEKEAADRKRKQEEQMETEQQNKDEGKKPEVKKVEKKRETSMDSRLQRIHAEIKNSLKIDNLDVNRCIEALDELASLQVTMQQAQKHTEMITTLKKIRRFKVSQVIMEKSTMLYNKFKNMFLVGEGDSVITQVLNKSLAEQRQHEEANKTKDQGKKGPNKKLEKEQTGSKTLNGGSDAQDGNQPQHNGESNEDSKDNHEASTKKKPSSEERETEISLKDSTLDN

Biological target: SRSF1 (human (endogenous in H1, MSC and IMR90 cells)) (UniProt Q07955)
Assay: co-IP; endogenous proteins; 200 ug pre-cleared lysate (20 mM Tris HCl pH 8, 137 mM NaCl, 1% Nonidet P-40, 2 mM EDTA) of H1, MSC and IMR90 cells precipitated with anti-SRSF1 antibody and protein G magnetic beads at 4 °C; PSIP1 detected by western blot; beads without antibody as IP control

binding: binds
Substance: PSIP1 protein (also known as LEDGF), p75 isoform (from UniProt O75475 1-530)
